Data published in PMC8632972.
No constants are given. Whether binding was seen depends on the method and setting. Binding seen in cells or lysates may run through a third protein. Where a sequence is shown, tags or fusion partners need not be part of it.

Target: T1, nYFP-tagged TMED9 (not stated (cDNA from INS1 cells)) (UniProt Q5I0E7)
T1 sequence: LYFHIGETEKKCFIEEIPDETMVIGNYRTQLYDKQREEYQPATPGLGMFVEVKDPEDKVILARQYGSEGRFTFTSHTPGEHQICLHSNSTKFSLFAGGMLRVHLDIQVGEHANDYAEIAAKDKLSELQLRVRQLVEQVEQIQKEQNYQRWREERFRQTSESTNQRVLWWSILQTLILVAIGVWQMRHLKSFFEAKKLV
Assay: split reporter; HEK-293T cells transfected with 200 ng nYFP- and 200 ng cYFP-tagged constructs, 48 h, then 30 °C for 6 h; fluorescence by flow cytometry or confocal imaging of live cells

binding: no binding
B1: proinsulin tagged with C-terminal segment of YFP (cYFP) (protein, UniProt P01322 25-110)
chain: FVKQHLCGPHLVEALYLVCGERGFFYTPKSRREVEDPQVPQLELGGGPEAGDLQTLALEVARQKRGIVDQCCTSICSLYQLENYCN
